Results on 1 substance are retold here after paper PMC11910115.

By UniProt entry, the sequences of proteins in these tests, tags left out. Residues count along the entry.
UniProt Q9UBK9, residues 2-157: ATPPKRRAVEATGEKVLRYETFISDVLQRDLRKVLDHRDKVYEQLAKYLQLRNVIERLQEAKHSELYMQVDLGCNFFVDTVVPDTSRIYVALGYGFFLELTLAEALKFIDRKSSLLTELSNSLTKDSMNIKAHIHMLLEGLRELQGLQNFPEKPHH

The experiment addresses 6×His-sfGFP-UXT (human) (UniProt Q9UBK9). In words: condition: only with an elevated concentration of SDS; native gel or EMSA; purified recombinant UXT proteins on PAGE with a serial gradient of SDS concentrations for denaturation (elevated SDS / denaturing conditions); both purified. On the technique in general: In EMSA bound probe runs differently from free probe, usually more slowly.

Results are given in words; binding and its absence hold for the method and conditions named.

With “6×His-sfGFP-UXT (from UniProt Q9UBK9 2-157)”, the binding result is recorded as “no binding”.
